According to the supplement of paper PMC7666118:
This is one part of the list.

By UniProt entry, the sequences of proteins in these tests, tags left out. Where a name states a change or a piece, a line headed by the entry shows the natural chain unless it says otherwise.
UniProt Q9H7H0: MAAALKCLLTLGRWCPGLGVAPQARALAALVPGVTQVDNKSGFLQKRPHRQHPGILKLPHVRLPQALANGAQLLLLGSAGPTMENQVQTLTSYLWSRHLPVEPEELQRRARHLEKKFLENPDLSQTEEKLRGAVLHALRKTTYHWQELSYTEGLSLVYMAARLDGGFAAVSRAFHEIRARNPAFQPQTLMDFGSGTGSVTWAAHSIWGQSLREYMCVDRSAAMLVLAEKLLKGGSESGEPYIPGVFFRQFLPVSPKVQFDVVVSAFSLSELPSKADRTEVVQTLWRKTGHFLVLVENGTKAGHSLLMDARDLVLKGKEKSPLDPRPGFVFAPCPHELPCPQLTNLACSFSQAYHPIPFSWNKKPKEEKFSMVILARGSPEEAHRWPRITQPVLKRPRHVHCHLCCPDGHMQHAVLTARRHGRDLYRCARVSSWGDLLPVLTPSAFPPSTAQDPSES
UniProt Q9UBP6: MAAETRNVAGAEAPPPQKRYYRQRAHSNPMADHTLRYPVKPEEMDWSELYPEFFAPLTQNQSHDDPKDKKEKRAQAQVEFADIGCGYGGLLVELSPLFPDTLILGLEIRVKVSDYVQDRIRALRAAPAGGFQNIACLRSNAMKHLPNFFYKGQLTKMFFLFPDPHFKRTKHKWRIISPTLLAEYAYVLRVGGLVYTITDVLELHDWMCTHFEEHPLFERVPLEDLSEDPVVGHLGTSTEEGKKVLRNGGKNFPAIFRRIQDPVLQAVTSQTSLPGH
UniProt Q14814: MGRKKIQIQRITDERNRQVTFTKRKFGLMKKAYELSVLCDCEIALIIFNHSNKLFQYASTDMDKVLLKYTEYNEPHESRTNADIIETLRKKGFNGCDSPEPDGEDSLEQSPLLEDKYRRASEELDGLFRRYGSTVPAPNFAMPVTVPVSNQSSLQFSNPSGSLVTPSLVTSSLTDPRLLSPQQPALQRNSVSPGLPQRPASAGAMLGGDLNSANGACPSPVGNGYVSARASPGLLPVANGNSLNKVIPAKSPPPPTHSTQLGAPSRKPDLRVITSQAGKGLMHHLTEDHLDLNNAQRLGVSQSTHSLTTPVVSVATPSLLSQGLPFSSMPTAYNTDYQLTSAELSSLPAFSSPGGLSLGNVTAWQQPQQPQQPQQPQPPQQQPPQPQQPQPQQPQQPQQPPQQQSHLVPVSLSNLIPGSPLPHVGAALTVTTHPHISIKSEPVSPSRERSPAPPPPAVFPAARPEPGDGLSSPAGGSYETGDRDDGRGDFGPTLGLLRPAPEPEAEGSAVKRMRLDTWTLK
UniProt Q8NB16: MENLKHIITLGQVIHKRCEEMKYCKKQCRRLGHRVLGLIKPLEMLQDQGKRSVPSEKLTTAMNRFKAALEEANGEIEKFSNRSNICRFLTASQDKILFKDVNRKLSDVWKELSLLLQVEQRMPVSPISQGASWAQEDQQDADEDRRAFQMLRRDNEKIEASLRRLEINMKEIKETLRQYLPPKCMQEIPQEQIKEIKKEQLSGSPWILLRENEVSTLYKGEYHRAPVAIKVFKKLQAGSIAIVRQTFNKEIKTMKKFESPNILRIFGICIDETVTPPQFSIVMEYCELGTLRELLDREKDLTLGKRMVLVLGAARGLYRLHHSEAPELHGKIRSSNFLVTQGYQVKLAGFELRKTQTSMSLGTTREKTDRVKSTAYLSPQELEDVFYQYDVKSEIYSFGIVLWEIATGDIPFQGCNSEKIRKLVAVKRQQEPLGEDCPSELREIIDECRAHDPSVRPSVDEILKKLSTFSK
UniProt Q9UBB5, whole entry: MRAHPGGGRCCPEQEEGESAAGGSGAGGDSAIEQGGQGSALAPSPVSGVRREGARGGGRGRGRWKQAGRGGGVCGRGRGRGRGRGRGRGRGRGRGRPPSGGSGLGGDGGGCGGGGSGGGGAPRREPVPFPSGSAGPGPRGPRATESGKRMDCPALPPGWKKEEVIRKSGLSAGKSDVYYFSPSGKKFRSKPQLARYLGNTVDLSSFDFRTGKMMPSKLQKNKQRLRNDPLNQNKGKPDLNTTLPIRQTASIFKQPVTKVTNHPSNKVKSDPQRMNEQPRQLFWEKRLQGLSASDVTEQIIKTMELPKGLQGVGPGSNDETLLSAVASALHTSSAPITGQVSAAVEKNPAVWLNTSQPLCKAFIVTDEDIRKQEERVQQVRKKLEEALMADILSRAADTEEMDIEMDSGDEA
UniProt Q96PE7: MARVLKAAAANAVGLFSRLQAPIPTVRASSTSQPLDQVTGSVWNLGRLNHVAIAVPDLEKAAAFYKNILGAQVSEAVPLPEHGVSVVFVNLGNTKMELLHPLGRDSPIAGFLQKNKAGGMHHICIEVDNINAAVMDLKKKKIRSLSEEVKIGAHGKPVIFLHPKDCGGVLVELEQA
UniProt P51948: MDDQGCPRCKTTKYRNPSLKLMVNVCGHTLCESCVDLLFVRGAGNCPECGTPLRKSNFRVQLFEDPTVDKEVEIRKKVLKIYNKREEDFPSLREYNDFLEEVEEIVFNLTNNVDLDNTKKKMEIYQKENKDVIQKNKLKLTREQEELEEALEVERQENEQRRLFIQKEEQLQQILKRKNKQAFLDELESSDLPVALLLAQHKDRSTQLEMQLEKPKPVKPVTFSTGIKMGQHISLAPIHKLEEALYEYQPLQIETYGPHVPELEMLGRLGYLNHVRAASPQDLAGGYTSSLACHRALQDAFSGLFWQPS
UniProt Q9NX47: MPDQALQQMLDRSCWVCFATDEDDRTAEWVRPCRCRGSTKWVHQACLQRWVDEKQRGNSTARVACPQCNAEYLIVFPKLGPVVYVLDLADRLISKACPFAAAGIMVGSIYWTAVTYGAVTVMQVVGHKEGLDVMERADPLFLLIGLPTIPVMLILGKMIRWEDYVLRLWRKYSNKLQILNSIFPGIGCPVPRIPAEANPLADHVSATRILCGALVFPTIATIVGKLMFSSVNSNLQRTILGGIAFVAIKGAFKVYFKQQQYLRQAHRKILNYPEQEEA
UniProt O60244: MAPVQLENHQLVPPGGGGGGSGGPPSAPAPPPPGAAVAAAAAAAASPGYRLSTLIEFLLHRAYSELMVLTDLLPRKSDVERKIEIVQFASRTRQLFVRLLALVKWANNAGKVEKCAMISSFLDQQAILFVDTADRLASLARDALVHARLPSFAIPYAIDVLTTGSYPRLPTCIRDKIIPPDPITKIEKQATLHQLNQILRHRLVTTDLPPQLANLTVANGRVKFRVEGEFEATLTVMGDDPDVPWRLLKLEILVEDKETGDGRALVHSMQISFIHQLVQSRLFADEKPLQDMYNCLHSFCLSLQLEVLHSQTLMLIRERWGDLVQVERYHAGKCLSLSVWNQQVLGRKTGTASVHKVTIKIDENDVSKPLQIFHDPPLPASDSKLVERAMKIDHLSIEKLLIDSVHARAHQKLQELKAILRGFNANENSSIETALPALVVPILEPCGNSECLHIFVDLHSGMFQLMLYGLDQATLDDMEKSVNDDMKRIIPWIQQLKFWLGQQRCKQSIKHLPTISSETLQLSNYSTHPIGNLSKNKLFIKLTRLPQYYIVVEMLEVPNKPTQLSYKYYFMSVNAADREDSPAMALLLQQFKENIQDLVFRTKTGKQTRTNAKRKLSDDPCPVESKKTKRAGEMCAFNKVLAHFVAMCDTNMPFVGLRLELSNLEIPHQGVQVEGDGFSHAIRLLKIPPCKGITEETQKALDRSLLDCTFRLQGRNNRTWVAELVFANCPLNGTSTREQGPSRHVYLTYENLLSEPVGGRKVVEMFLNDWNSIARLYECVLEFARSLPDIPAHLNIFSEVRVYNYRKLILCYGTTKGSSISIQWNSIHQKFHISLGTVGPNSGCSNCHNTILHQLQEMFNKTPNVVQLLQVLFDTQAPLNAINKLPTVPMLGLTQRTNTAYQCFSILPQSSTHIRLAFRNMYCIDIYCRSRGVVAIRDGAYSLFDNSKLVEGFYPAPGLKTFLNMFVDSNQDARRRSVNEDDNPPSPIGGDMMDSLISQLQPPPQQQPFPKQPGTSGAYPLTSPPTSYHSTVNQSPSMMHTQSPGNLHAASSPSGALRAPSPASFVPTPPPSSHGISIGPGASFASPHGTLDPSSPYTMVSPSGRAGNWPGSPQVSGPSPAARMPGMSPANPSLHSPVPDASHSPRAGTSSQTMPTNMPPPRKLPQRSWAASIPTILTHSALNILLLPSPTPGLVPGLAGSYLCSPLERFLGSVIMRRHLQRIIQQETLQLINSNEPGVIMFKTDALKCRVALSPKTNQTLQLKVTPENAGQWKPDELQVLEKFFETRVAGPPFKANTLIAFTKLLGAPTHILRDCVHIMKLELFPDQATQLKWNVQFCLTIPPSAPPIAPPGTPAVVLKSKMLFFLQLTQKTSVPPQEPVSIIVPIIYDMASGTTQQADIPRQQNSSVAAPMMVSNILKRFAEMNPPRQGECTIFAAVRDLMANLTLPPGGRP
UniProt Q9UQ53: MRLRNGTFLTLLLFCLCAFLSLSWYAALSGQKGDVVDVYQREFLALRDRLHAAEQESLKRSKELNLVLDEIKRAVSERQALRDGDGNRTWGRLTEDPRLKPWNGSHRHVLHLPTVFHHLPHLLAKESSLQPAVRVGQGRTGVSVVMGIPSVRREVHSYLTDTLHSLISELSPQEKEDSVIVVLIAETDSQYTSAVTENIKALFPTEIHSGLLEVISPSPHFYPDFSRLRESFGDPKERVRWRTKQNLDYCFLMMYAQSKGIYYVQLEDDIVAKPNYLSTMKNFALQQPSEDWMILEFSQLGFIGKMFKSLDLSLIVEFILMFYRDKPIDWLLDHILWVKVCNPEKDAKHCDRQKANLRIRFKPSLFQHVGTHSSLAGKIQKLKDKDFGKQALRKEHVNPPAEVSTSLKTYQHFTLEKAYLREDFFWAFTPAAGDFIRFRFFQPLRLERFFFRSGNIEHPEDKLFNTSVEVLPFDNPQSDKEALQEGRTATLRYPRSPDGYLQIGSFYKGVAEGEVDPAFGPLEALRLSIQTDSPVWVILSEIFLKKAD
UniProt Q00013: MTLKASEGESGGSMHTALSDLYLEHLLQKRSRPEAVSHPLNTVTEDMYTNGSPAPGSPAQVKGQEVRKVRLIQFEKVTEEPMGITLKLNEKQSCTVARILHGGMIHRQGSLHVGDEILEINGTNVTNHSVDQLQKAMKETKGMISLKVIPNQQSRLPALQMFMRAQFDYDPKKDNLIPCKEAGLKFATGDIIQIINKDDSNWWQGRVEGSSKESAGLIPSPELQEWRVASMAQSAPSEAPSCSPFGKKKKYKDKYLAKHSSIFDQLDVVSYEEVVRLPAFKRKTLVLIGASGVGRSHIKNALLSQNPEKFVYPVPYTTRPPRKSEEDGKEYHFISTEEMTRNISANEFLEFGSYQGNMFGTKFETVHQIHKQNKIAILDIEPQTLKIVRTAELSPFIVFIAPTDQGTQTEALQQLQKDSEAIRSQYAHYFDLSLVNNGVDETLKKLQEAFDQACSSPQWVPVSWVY
UniProt P42679: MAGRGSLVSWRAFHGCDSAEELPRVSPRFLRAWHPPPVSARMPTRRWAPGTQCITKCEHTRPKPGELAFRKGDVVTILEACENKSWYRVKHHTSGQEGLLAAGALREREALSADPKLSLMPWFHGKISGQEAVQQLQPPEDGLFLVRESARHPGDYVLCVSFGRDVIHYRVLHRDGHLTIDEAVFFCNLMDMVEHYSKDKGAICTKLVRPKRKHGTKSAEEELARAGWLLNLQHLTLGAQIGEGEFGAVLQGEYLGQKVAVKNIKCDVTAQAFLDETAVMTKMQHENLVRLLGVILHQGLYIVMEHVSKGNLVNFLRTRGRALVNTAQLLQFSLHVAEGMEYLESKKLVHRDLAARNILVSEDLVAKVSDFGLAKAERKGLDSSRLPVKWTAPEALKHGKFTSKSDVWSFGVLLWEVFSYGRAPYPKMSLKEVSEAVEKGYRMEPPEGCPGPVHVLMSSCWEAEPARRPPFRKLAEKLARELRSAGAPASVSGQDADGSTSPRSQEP
UniProt P56270: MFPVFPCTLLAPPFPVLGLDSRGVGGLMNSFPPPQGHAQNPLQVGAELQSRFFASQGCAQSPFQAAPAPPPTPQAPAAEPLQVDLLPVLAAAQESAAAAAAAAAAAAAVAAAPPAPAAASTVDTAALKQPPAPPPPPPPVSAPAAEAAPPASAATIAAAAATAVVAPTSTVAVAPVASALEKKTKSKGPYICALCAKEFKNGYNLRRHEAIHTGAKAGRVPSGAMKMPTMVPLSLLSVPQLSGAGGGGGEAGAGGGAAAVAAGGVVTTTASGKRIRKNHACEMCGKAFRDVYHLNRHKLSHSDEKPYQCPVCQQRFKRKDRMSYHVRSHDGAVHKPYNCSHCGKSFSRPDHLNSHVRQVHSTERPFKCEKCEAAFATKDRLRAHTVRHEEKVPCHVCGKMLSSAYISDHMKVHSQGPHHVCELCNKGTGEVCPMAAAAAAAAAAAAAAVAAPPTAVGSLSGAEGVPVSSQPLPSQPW

Each target was assayed with COc1ccc(Cn2ccc3ccc(C(=O)NO)cc32)cc1 (assay: dose-dependent thermal stabilisation call (2D-TPP, DLPTP, 10% FDR) (binary (1 = stabilised)); higher = stabilised by the compound). Conditions: system: HL-60 intact cells; concentration range 0.04-10 µM.

| Target | dose-dependent thermal stabilisation call |
| --- | --- |
| METT11D1 (UniProt Q9H7H0) | inactive: 0 |
| MAP4K4 (UniProt O95819) | inactive: 0 |
| MRPL41 (UniProt Q8IXM3) | inactive: 0 |
| MAP2K4 (UniProt P45985) | inactive: 0 |
| METTL1 (UniProt Q9UBP6) | inactive: 0 |
| MRPL1 (UniProt Q9BYD6) | inactive: 0 |
| MGC16169 | inactive: 0 |
| MAPRE2 (UniProt Q15555) | inactive: 0 |
| MRPL10 (UniProt Q7Z7H8) | inactive: 0 |
| MEF2D (UniProt Q14814) | inactive: 0 |
| MINPP1 (UniProt Q9UNW1) | inactive: 0 |
| MLKL (UniProt Q8NB16) | inactive: 0 |
| MBD2 (UniProt Q9UBB5) | inactive: 0 |
| MCEE (UniProt Q96PE7) | inactive: 0 |
| MRPL4 (UniProt Q9BYD3) | inactive: 0 |
| MGAM (UniProt O43451) | inactive: 0 |
| MRPL40 (UniProt Q9NQ50) | inactive: 0 |
| MNAT1 (UniProt P51948) | active: 1 |
| MARCH5 (UniProt Q9NX47) | inactive: 0 |

| Target | dose-dependent thermal stabilisation call |
| --- | --- |
| MAPT (UniProt P10636) | inactive: 0 |
| MRPL22 (UniProt Q9NWU5) | inactive: 0 |
| MRPS12 (UniProt O15235) | inactive: 0 |
| METT10D (UniProt Q86W50) | inactive: 0 |
| MMS19 (UniProt Q96T76) | inactive: 0 |
| MLLT1 (UniProt Q03111) | inactive: 0 |
| MED14 (UniProt O60244) | inactive: 0 |
| MRPL35 (UniProt Q9NZE8) | inactive: 0 |
| MKL1 (UniProt Q969V6) | inactive: 0 |
| MGAT4B (UniProt Q9UQ53) | inactive: 0 |
| MEN1 (UniProt O00255) | inactive: 0 |
| MPP6 | inactive: 0 |
| MRPL53 (UniProt Q96EL3) | inactive: 0 |
| MGC3196 | inactive: 0 |
| MRPL13 (UniProt Q9BYD1) | inactive: 0 |
| MPP1 (UniProt Q00013) | inactive: 0 |
| MATK (UniProt P42679) | inactive: 0 |
| MAZ (UniProt P56270) | inactive: 0 |
| MFAP1 (UniProt P55081) | inactive: 0 |

Rewritten as tab-separated lines: entries from further up
Target	dose-dependent thermal stabilisation call
MGC3196	inactive: 0
MRPL13 (UniProt Q9BYD1)	inactive: 0
